Only a part is listed here, and it is no random draw. At the low end of the ranking, values are background and their order means little.

The test concerns the target SPI1 (UniProt P17947). The test is described as follows: DAPPL (digital affinity profiling via proximity ligation, sequencing). As to conditions: 10 mM Tris-HCl pH 7.5, 50 mM NaCl, 1 mM DTT, 4% glycerol, room temperature, 30 min; GST-TFs on glutathione beads, 16-mer random dsDNA library, 0.1% …; high values mean tight binding; double strand, one strand shown; scale: fold enrichment (6-mer frequency, TF over GST control).
CCTCAG: the binding signal turned out to be 1.17. With CGGCAA the figure was 0.892; with TAGTGT, 1.12; with ACGCGC, 0.936. For GATGGA, the binding signal is 0.88. For TAGTGC, the binding signal was found to be 1.05. GTCTGG showed a binding signal of 0.916. The sequence TCAAGC had a binding signal of 0.923.

As for TCCGCG, the binding signal amounted to 1.3. With TAGTCA the figure was 0.871. For GGACTC, the binding signal was 0.933. With CATAAA the figure was 0.992; with ACTCTG, 1.26; with CAAGCC, 0.955. GCGCCG came in with a binding signal of 0.882. With TTGCAG, the binding signal was determined as 1.08. With TAATTC the figure was 1.33; with CATGAT, 1.03; with CTAGTG, 0.95. On to GGCTCG, for which the binding signal was determined as 0.89.

As for TGCGAA, the binding signal was 1.26.

For CTGACA, the binding signal is 1.26.

Regarding GTTGTA, the binding signal amounted to 0.974. With AAACTT the figure was 1.24. With ATTAGA the figure was 0.856; with TACCTG, 0.969. Turning to TCCAGA, the binding signal was determined as 0.946.

TCGAAC returned a binding signal of 0.949.

The sequence TCTGGT registered a binding signal of 1.31. With TGTATT the figure was 1.28. For the sequence CTCTCC, the binding signal was 1.41. CATTCG returned a binding signal of 1.26. With AGAGAT the figure was 0.912; with CTGTAG, 0.935. CTACAG gave a binding signal of 0.962.

For the sequence TAGGTA, the binding signal worked out at 0.938. Turning to AACCCT, the binding signal was found to be 1.32. With ATCGCG the figure was 0.816; with TCAGTT, 0.956.
